HELM strings list residues between dots; [ac] is acetyl, [am] amide, other brackets name non-standard units.
Assay: general procedure: solution-phase peptide synthesis; isobutyl chlorocarbonate/NMM (mixed anhydride); PyroGlu-OTcp and BOC-Gln-ONp act
Conditions: acetate

**Q.** With “Ala-Lys(BOC)-Ser(But)-Gln(Pbh)-Gly-Gly-Ser(But)-Asn.OBut” as the substance, how does the step yield (late stage modification step) read?
**A.** Its step yield is 90%.

**Q.** Which step yield (coupling step) does the source give for “BOC (Gln-Ala-Lys(BOC)-Ser(But)-Gln-Gly-Gly-Ser(But)-Asn OBut” here?
**A.** Its step yield is 78%.

**Q.** For “Lys(BOC)-Ser(But)-Gln(Mbh)-Gly-Gly-Ser(But)-Asn.OBut”, which step yield (late stage modification step) is on record?
**A.** Its step yield is 90%.

**Q.** Which step yield (late stage modification step) does the source give for PEPTIDE1{[pE].A.K.S.Q.G.G.S.N}$$$$V2.0 here?
**A.** The step yield was “from 80 to 90%”.

**Q.** For “PyroGlu-Ala-Lys(BOC)-Ser(But)-Gln(Mbh)-Gly-Gly-Ser(But)-Asn-OBut”, which step yield (coupling step) is on record?
**A.** Its step yield is 70%.

**Q.** For “PyroGlu-Ala-Lys(BOC)-Ser(But)-Gln-Gly-Gly-Ser(But)-Asp-di.OBut”, which step yield (coupling step) is on record?
**A.** The step yield was 65%.

**Q.** Which step yield (coupling step) does the source give for “PyroGlu-D.Ala-Lys(BOC)-Ser(But)-Gln(Mbh)-Gly-Gly-Ser(But)-Asn.OBut” here?
**A.** Its step yield is 70%.

**Q.** Which step yield (coupling step) does the source give for “PyroGlu-Lys(BOC)-Ser(But)-Gln-Gly-Gly-Ser(But)-Asn OBut” here?
**A.** The step yield was 57%.

**Q.** With “PyroGlu-Lys(BOC)-Ser(But)-Gln-Gly-Gly-Ser(But).OBut” as the substance, how does the step yield (coupling step) read?
**A.** Its step yield is 70%.

**Q.** With “Ser(But)-Gln(Mbh)-Gly-Gly-Ser(But)-Asn.OBut” as the substance, how does the step yield (late stage modification step) read?
**A.** Its step yield is 90%.

**Q.** With “Z-Ala-Lys(BOC)-Ser(But)-Gln-Gly Gly-Ser(But)-Asp-di.OBut” as the substance, how does the step yield (coupling step) read?
**A.** Its step yield is 75%.

**Q.** For “Z-Ala-Lys(BOC)-Ser(But)-Gln-Gly-Gly-Ser(But)-Asn OBut”, which step yield (coupling step) is on record?
**A.** The step yield was 64%.

**Q.** For Z.Ala-Lys(BOC)-Ser(But)-Gln-Gly-Gly.OMe, which step yield (coupling step) is on record?
**A.** Its step yield is 80%.

**Q.** Which step yield (coupling step) does the source give for “Z.D-Ala-Lys(BOC)-Ser(But) Gln(Mbh)-Gly-Gly-Ser(But)-Asn.OBut” here?
**A.** Its step yield is 85%.

**Q.** With “Z.Gln(Mbh)-Ala-Lys(BOC)-Ser(But)-Gln(Mbh)-Gly-Gly-Ser(But)-Asn.OBut” as the substance, how does the step yield (coupling step) read?
**A.** Its step yield is 50%.

**Q.** For “Z.Lys(BOC)-Ser(But)-Gln(Mbh)-Gly-Gly-Ser(But)-Asn.OBut”, which step yield (coupling step) is on record?
**A.** The step yield was 90%.

**Q.** With Z.Lys(BOC)-Ser(But)-Gln-Gly-Gly.OMe as the substance, how does the step yield (coupling step) read?
**A.** The step yield was 75%.

**Q.** With “Z.Ser(But)-Gln(Mbh)-Gly-Gly-Ser(But)-Asn.OBut” as the substance, how does the step yield (coupling step) read?
**A.** The step yield was 87%.

**Q.** Which step yield (late stage modification step) does the source give for Z.Ser(But)-Gln(Mbh)-Gly-Gly.OH here?
**A.** Its step yield is 85%.

**Q.** Which step yield (coupling step) does the source give for Z.Ser(But)-Gln(Mbh)-Gly-Gly.OMe here?
**A.** Its step yield is 85%.

**Q.** Which step yield (coupling step) does the source give for Z.Ser(But)-Gln-Gly-Gly.OMe here?
**A.** The step yield was 75%.
